This is one part of the list. The main result of the screen is listed elsewhere. These columns were measured beside it and carry no call. Compounds called inactive in the main read-out are mostly missing here. Potencies come from curve fits of mixed quality, noted in brackets.

The test in a line: qHTS Assay to Find Inhibitors of Chronic Active B-Cell Receptor Signaling. Conditions: ABC-DLBCL IkBa-CBG/CBR reporter, luminescence ratio (green luciferase fused to IkBa over red control in TMD8 lymphoma cells), 4 h. Summed up: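 TMD8 ABC-DLBCL cells carrying doxycycline-inducible green luciferase fused to IkappaBalpha plus unfused red luciferase were exposed to compounds (up to 46 uM) for 4 hrs at 37C. Activity came from the overlap-corrected green/red luminescence ratio.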

Setting [1] is: measured here: CBR red luminescence, cell number.

As to `Cc1ccc(C(NC(=O)NC(C)c2ccccc2)C(Cl)(Cl)Cl)cc1F` (stereo not drawn), the AC50 under setting [1] was 20.6 µM [falling, partial curve, poor fit].

Consider `Cc1cc(C)cc(Oc2ccc(S(=O)(=O)N3CCN(C)CC3)cn2)c1`, for which, under setting [1], the half-maximal activity concentration (AC50) was 23.1 µM [falling, partial curve, poor fit].

Regarding `COC(=O)CCN1CCN(S(=O)(=O)c2cccc(Br)c2)CC1`, under setting [1], the half-maximal activity concentration (AC50) was 1.78 µM [rising, full curve, poor fit].

Turning to `CN(C)S(=O)(=O)c1ccc2c(c1)/C(=C/c1cc3c([nH]1)CCCC3)C(=O)N2`, under setting [1], the AC50 is 1.84 µM [falling, full curve].

For the molecule `O=C(CCn1nc(-c2ccc(Cl)cc2)ccc1=O)NCCc1ccccc1`, the AC50 under setting [1] was 5.62 µM [rising, single point].

`O=C(Nc1ccccc1F)C(=O)c1cn(CC(=O)N2CCCCC2)c2ccccc12`: the AC50 under setting [1] is 1.41 µM [falling, full curve].

`CC1(C)CC(=O)C=C(NCC(O)c2ccccc2)C1` (stereo not drawn): under setting [1], the concentration at half-maximal activity (AC50) was 25.1 µM [falling, partial curve, poor fit].

Take `CSC1=NCCN1C(=O)COc1ccccc1`: the concentration at half-maximal activity (AC50) under setting [1] is 5.8 µM [rising, single point].

`Cc1ccc(-c2noc(CCC(=O)NCCc3ccccc3Cl)n2)cc1`: the concentration at half-maximal activity (AC50) under setting [1] was 3.26 µM [rising, full curve].

Take `CN(C)N1C(N)=C(C#N)C(c2ccc(Cl)cc2)C2=C1CCCC2=O` (stereo not drawn): the AC50 under setting [1] was 1.58 µM [falling, full curve].

Turning to `O=C(Nc1nc2ccccc2s1)c1c(F)cccc1Cl`, the AC50 under setting [1] is 7.94 µM [falling, partial curve].

As for `O=C(NNC(=O)c1ccccc1Br)c1ccc(Cl)c(Cl)c1`, under setting [1], the concentration at half-maximal activity (AC50) was 2.51 µM [falling, full curve].

`Cc1ccc(Cn2nnc3c(=O)[nH]c(C4CCN(S(=O)(=O)c5ccc(C)cc5)CC4)nc32)cc1`: the AC50 under setting [1] is 8.2 µM [falling, partial curve, poor fit].

Regarding `COc1ccccc1N(CC(=O)NCCSc1ccccn1)S(=O)(=O)c1ccccc1`, the AC50 under setting [1] is 11.2 µM [falling, partial curve, poor fit].

As for `CCCCCSc1nc2c(c(=O)[nH]c(=O)n2C)n1C(C)C`, the half-maximal activity concentration (AC50) is, setting by setting: under setting [1], 0.651 µM [rising, full curve, poor fit]; (measured here: IkBa-CBG green luminescence) 2.91 µM [falling, partial curve, poor fit].

Take `COc1ccc(C(=O)CSc2nc(C(C)(C)C)nc3ccccc23)cc1`: the concentration at half-maximal activity (AC50) under setting [1] was 22.4 µM [rising, partial curve, poor fit].

Turning to `CC(C)(C)NC(=O)C(c1ccc(O)cc1)N(C(=O)CCC(=O)Nc1nccs1)c1cccc(F)c1` (stereo not drawn), the concentration at half-maximal activity (AC50) under setting [1] is 8.91 µM [falling, partial curve, poor fit].

Values taken from PubChem BioAssay AID493014 (National Center for Advancing Translational Sciences (NCATS), 2011).
